Here are results for three compounds from patent publication US20250177354A1, “THERAPEUTIC COMBINATIONS, COMPOSITIONS, AND METHODS FOR DESIGNING AND PRODUCING EN[…]” (Mindstate Design Labs, Inc., priority 2022, published 2025).

The test system of the series is individual. The series can be described thus: Self-administration of combinations and single-compound controls, subjective reports recorded by the individual. It is filed as in vivo, human. Here is the method:
In several examples of such administration, the combinations as follows were self-administered, with the subjective reports recorded by the individual during and/or following such administration, as below.
The following example was performed for purposes of and is presented as a control.
In an example, the combination as set forth below was self-administered, with the report as follows.
The working example below was performed for purposes of and is presented as a control.
The working examples below were also performed for purposes of and are presented as controls, using an escalating dose of a single primer alone, applicable to this and other Examples.

With `COc1ccc2[nH]cc(CCN(C)C(C)C)c2c1` [Example 5-MeO-MiPT, N-isopropyl-5-methoxy-N-methyltryptamine], the “time until the drug came on” value (control: 10.0 mg 5-MeO-MiPT alone) amounted to 30 min.

Take `COc1nc(C)nc(Cl)c1NC1=NCCN1` [Moxonidine, 4-Chloro-N-(4,5-dihydro-1H-imidazol-2-yl)-6-methoxy-2-methylpyrimidin-5-amine]: for the setting “control: 0.2 mg Moxonidine alone, 12:30 pm”, the “time until effect was felt” value was “about one hour”. In the case of `C1COC(NC(C2CC2)C2CC2)=N1` [Rilmenidine, N-(dicyclopropylmethyl)-4,5-dihydro-1,3-oxazol-2-amine], the “time until effect was felt” value (control: 1.0 mg Rilmenidine alone, 9:00 pm) is recorded as “half an hour”.
